No constants are given. Whether binding was seen depends on the method and setting. Binding seen in cells or lysates may run through a third protein. Some entries that bind do so weakly or less than the wild type.

The chains behind the UniProt entries cited, without tags or fusion partners.
UniProt Q9D281: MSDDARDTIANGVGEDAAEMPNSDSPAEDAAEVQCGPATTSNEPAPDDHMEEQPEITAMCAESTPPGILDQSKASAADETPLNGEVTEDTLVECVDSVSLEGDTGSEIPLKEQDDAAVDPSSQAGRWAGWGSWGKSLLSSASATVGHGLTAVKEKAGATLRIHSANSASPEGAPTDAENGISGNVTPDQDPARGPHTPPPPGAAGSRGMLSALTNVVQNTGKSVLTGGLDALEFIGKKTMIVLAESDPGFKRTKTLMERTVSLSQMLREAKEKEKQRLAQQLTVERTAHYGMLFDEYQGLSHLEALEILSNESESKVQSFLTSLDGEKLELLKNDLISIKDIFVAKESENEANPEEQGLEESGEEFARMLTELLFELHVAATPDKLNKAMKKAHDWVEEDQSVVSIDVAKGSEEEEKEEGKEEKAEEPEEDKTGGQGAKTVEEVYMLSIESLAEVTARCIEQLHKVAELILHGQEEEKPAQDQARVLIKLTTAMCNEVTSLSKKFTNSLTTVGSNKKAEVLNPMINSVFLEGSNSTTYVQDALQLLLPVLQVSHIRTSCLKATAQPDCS

The target of this assay is FLAG-tagged FAM114A1 recombinant protein (UniProt Q9D281). Nature of the assay: co-IP.

B1: AGTRAP in NIH/3T3 fibroblast cells (protein, UniProt Q9WVK0 1-161)
chain: MELPAVNLKVILLVHWLLTTWGCLVFSSSYAWGNFTILALGVWAVAQRDSIDAIGMFLGGLVATIFLDIIYISIFYSSVATGDTGRFGAGMAILSLLLKPFSCCLVYHMHRERGGELPLRPDFFGPSQEHSAYQTIDSSSDAAADPFASLENKGQAVPRGY
In the case of B1, the binding entry was “binds”.
